# Among all 31,000 sequences or so, about 1,400 (4.5%) were called active.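 Rule for the calls: active = median seed-adjusted z-score above 1 or below -1; inactive = the rest.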 The list shows a part of the results.
# Assay: Novel Modifiers of Survival Motor Neuron (SMN) Protein: Gene Identification via Genome-wide siRNA Screen;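 note: luminescence tracks full-length SMN protein made from the SMN2 reporter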
# Details: HEK293T SMN2-luciferase reporter, siRNA knockdown, 72 h; actives lie on both sides
# Method in brief: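 Steps: spot 1 pmol siRNA, add Lipofectamine RNAiMax in serum-free DMEM, seed HEK293T SMN2–luciferase reporter cells; incubate 72 h at 37 °C; add ONE-Glo; normalize luminescence to control siRNA, log10, MAD. Candidates: |MAD| > 1.0.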
row,Sequence,median seed-adjusted z-score
1,GGUCCUUGCUUAACCAGGATT against NRIP1,inactive: 0.789
2,CUACGUGUAUUAUUGCGCATT against PSAT1,inactive: -0.706
3,AGCGAGGGUUUUCAAUGAATT against NOG,inactive: 0.328
4,GAGUUCAUCUCGGAAUGCATT against MB,inactive: 0.504
5,ACAUGAGAAUGAUGCUGCUTT against LOXL4,inactive: -0.591
6,GCAACAACCGGGUGAGAGATT against RHPN1,inactive: 0.161
7,GCAUCUCGAGGGACUGUAATT against SCN11A,inactive: 0.196
8,CAAGUUUAAGGAAACUGAATT against CRY2,inactive: 0.0209
9,CGAAAACUGAUACACUUGATT against KSR2,inactive: -0.371
10,GGAUCUGCCUGGUACAACUTT against ARIH1,inactive: -0.443
11,AGACGAAGGUUAUUGAUCATT against RBP2,inactive: 0.0132
12,GGCUAUUACGACUACAACATT against FOXRED1,inactive: 0.447
13,GUGUAGUCCCAAUCUCUAATT against WFDC3,inactive: -0.644
14,GCAUUGGGAAGAUACUGGATT against GALNS,inactive: 0.0287
15,GCCUUGAUCAUCAAACUCATT against KCNK17,inactive: -0.579
16,GCAUACAUAUGGUAUAGCATT against DDX20,inactive: -0.0137
17,GAGAUUACAUCAUUAGAGATT against PRKG2,inactive: 0.272
18,GGAACUUCCAUGCCUCUAATT against ATP5A1,inactive: -0.974
19,GAACAUCGCCGCAUCCACATT against ZNF574,inactive: -0.528
20,GGAUCCCAAUUCUGGGUAATT against DOK1,inactive: 0.0532
21,ACGGGAACAUGUACAUUGATT against SIRT7,inactive: -0.427
22,GGUGUUUUCAGGACCAGGATT against TNFRSF9,inactive: 0.859

row,Sequence,median seed-adjusted z-score
1,CAUCAACUAUAUCACAGUATT against ATP13A5,inactive: 0.241
2,CACGUGCAGAGUGUCGAUATT against EEF1D,inactive: 0.421
3,CACCAAGAGUGAAAUUGCATT against KRT4,inactive: 0.336
4,GGCCUUCAUUGGGAACUUUTT against FMNL2,inactive: 0.293
5,GGUUCUAGCAAACACCAAUTT against CALM3,inactive: 0.225
6,GAAGAAAUGUUGUUCGAAUTT against KAL1,inactive: 0.0824
7,GCCUUUCCAUGUCAUGAGATT against ZDHHC4,inactive: 0.181
8,GCGUUAUCCUCGUACCUUUTT against STC2,inactive: -0.00039
9,GCAAUGAUGUCGAUGACCATT against CDK5,inactive: 0.402
10,CAUCACUGAUCAAGCCUAATT against SLC13A4,inactive: 0.446
11,GCCUCUACAGCAGAAGAAATT against LAMB2,active: 1.12
12,GCGACUUGUCUUCUUCUUUTT against NDUFB11,inactive: 0.014
13,GGAAGAUCCGAUCCAAUCATT against IQGAP3,inactive: -0.183
14,GAGAAUCAAGAGUUCUUAATT against NES,inactive: 0.613
15,CGAGUGAUGCGAUUGGUGATT against CACNA1D,inactive: -0.0856
16,GAAGAGCUCUUAGAGUGUATT against BCAT1,inactive: -0.604
17,GAUCUAUUGGAUUAGCCUATT against FST,inactive: 0.357
18,ACGGCACGCUUGUACAUGATT against TGM3,inactive: 0.257
19,GAUCUACCGUCAAAGCUCUTT against ABCC8,inactive: 0.24
20,GCCUAAGUUUUUGACUAAATT against HBS1L,inactive: -0.509
21,GAAUGUGCAUCCUUAUAUATT against HOXD10,inactive: -0.374
22,CAAGAAUUGUUGUACUAGUTT against ZNF556,inactive: 0

row,Sequence,median seed-adjusted z-score
1,GGAGGAGCCUAAGAUGUCATT against ZNF442,active: 1.06
2,GCAAGAUCGUCAACUAUUATT against IPPK,inactive: 0.389
3,CGGUCAAUGUUCUAAAGAUTT against CACNG5,inactive: -0.41
4,GCAUGGAAAAGGUUCAUGATT against CATSPER4,inactive: -0.669
5,GCUUUGAGAUUUUCGAGGATT against MYO1B,inactive: 0.903
6,UGACAAUACCUACUAUGCATT against CAMKK2,inactive: -0.121
7,GAAGAAACUUGUGAACGAATT against MX1,active: -1.49
8,GCCCAUAGGUUGGUUCUCATT against KLHL4,inactive: 0
9,ACCCUUCUCUGUCCAUUGATT against UCN,inactive: -0.472
10,UCAUCAACAAGGAAAAUUATT against NPTN,inactive: 0.133
11,CCUAAAAAGUGACAUCGGUTT against CBARA1,inactive: -0.0426
12,GAGUGGUAUUUGAUCAGGATT against ACO1,inactive: -0.197
13,GAGUGUAUGUGAUCAUCGATT against PRKCE,inactive: 0.568
14,GAAGUUUCCAAAUACGAGATT against CDK9,inactive: 0.901
15,GGCAUAUCUCUUCACUAUATT against LPHN2,inactive: -0.817
16,CAGGUACUAUGAUCAGAUUTT against PLXNB3,inactive: -0.0652
17,GGGCUUUGCUAUUUCAACUTT against SDHD,inactive: -0.538
18,CAAGGUGUUUUACCUGAAATT against YWHAH,inactive: -0.125
19,GCUUUGGAAGAAUACGUUATT against NR2F2,inactive: 0.129
20,GAAACUGCUAUAUUUGAAUTT against ZNF587,inactive: -0.178
21,GCUACUUCGUGACGCGAGATT against HS3ST6,inactive: 0
22,ACAGGUCAGCAAAAACAGUTT against KREMEN2,inactive: -0.0883

row,Sequence,median seed-adjusted z-score
1,CAGUGAGAUUGGGAUGAAATT against CD247,inactive: -0.522
2,CUCUGAACAUCAACCCGGATT against DMRTB1,inactive: -0.393
3,GGACAUUCUAGAGAAAGAATT against SUPT5H,active: -4.02
4,UGAGUAUGCCUACCUCAAATT against HNF4A,inactive: -0.0274
5,GAGAUUGGGUGGAAGAGAATT against FOXD2,inactive: -0.0853
6,GCUCGAUUCCAGAUAGGAATT against DDX52,inactive: -0.2
7,GGAUCUAUCGUCAAUAUCATT against PECR,inactive: -0.347
8,GGAAAUAGAUGGGCAACUUTT against GBP5,inactive: -0.194
9,UCAUCAUGGUUCAUAUUUATT against PDCL,inactive: -0.802
10,GGAAUAUGAGGUGACCGUUTT against IL17RA,active: -1.29
11,GGACGACGACGAGUUUGCATT against EHD3,inactive: 0.569
12,GCUGGUGACUGGUACUUCATT against ADAM15,inactive: -0.682
13,CCUACGGGAUUGGACUGAATT against ETFDH,inactive: 0.154
14,GGACAUCACAGGCUAUUCATT against SYT6,inactive: -0.072
15,CACCGACUAUCUCACGUGATT against PSMB2,inactive: 0
16,GCUUGUUACACGUACUCUATT against ACSL5,inactive: 0.109
17,GGAAUUCGAUGACCCGCUATT against PPP1R3B,inactive: -0.298
18,CAUUAUAUGCUGUACAAGATT against ITGB5,inactive: -0.00882
19,GGUGAUCUAUUAUAAGGAUTT against FCER1A,inactive: -0.0293
20,GGAGGAACAGCAGACCUUATT against ZNF76,inactive: -0.0395
21,GGAAUAAUCUUUGCUGAGATT against TICAM2,inactive: -0.256
22,GUACCAAAGUGCAAUCAAATT against PPARG,inactive: -0.0309

row,Sequence,median seed-adjusted z-score
1,GCACUGAGACCAUUGAAGATT against PCTK3,inactive: 0
2,GAAUUUUGAUGGACAAGUUTT against RAG2,inactive: 0.138
3,GGAUUCAUCCUUACCCUCATT against PPP2R4,inactive: 0.318
4,GGAUGUCAGUGUUUCGGAATT against UHMK1,inactive: -0.269
5,CUGUGACACUUAUAAAUAUTT against ATP6V1G2,inactive: -0.664
6,CGGCAUCUCGUCCUACUUUTT against DDX51,inactive: -0.0715
7,AGGUUUACGUGUAAUUCCATT against ZSCAN5A,inactive: 0.31
8,CCAUCGAACGGAAUCAGGATT against PPP6C,inactive: -0.0212
9,CCUCUUACACUUUUCCGAATT against PECI,inactive: -0.0254
10,CAUCUUUCCUAAAGAGUUUTT against POLR2D,active: -3.79
11,AGACCUUCGCCUUUCCCUATT against DBX1,inactive: 0.0137
12,CCAUCUAUAGGACCGCCUATT against EGFL7,inactive: 0.8
13,GCAGAGACGGCAGACAUGATT against CABP2,inactive: 0.323
14,GACCAAAAGAAGUACUUAATT against MTMR6,inactive: -0.395
15,CUCUCGUCUUACUUACAUATT against COL17A1,inactive: 0.252
16,GGACUUACCUCAAUCAGAUTT against ZDHHC13,inactive: -0.381
17,GAGCUUCAAUAUCCCUCUATT against HDAC3,inactive: 0.579
18,GCAAGGAGCUGAUCGAUCUTT against PLCE1,inactive: 0.597
19,AGAUCUAUCCUAGCCGGGATT against RING1,inactive: 0.685

# Five entries from above, with bars between the fields:
row | Sequence | median seed-adjusted z-score
4 | GGAUGUCAGUGUUUCGGAATT against UHMK1 | inactive: -0.269
5 | CUGUGACACUUAUAAAUAUTT against ATP6V1G2 | inactive: -0.664
6 | CGGCAUCUCGUCCUACUUUTT against DDX51 | inactive: -0.0715
7 | AGGUUUACGUGUAAUUCCATT against ZSCAN5A | inactive: 0.31
8 | CCAUCGAACGGAAUCAGGATT against PPP6C | inactive: -0.0212
